This is an account of results in PubChem BioAssay AID1347423 (Functional Genomics Laboratory (NCATS/FGL), 2020).

In all, about 52,000 sequences went through this assay and about 210 (0.4%) were called active.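 How the source made its calls: active means gene whose silencing raises cell survival under the drug, median off-target-corrected z-score across its silencing RNAs 2 or more; inactive means the rest.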 The list shows a part of the results.

The nature of this test: Resistance to Poly (ADP-Ribose) Polymerase inhibitor: Gene Identification via Genome-wide siRNA Screen. Conditions: mouse BRCA2 R2336H ES cells, olaparib, CellTiter-Glo viability; active compounds read high. In outline:
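Mouse BRCA2 R2336H ES cells were reverse-transfected with siRNA (20 nM final), treated at 48 h with 500 nM olaparib, and read by CellTiter-Glo after 72 h. Scores: MAD-based z per siRNA, median per gene, seed off-target correction.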
(In general: Cellular ATP, detected with luciferase, serves as a proxy for viable cell number.)
On to CCAUAUUACAACAACUCUCTT against Sytl4, for which the z-score is inactive: 0.462.

Turning to GGGCCAGUUCCCAAUGAAATT against Gfm, the z-score was inactive: 0.687.

Take GGCCAGAGCCUGAAUUCUUTT against Bag4: the z-score was inactive: -0.642.

For the sequence “CCUUAAGUGUGUCAGGGCATT against 1110058L19Rik”, the z-score is inactive: -1.58.

As to GCCCAUGAGUCAACAGUACTT against Ss18l1, the z-score is inactive: 0.436.

For the sequence GGGAAGUACACAUUGAUUATT against Ndst4, the z-score is inactive: -0.162.

In the case of “CCUUGAAUUUAACAGGGAUTT against 4930506M07Rik”, the z-score is inactive: -0.401.

Consider GGAGCUCGUGAAGCUGUUUTT against Stk19, for which the z-score is inactive: 2.44.

As for GGGUCCACAUAUAAUUACCTT against Slc36a3, the z-score was inactive: -0.163.

Consider GGACAUCUUGCUGCUUCUATT against Srebf1, for which the z-score was inactive: 0.309.

As to “GGAUAACCGCCAAUAAAAATT against 5730528L13Rik”, the z-score was inactive: 1.7.

Take “GGAACAGUCACAGACAGCUTT against 9030624J02Rik”: the z-score is inactive: -0.129.

Regarding GAUAAAAUGGGCAUUACCUTT against Olfr666, the z-score was inactive: -0.345.

For the sequence GGUACACAAACAAGUAUUCTT against Eif3s7, the z-score is inactive: 0.58.

Take GGCAGCAGAAGCUUAACAATT against Cadps2: the z-score was inactive: -0.797.

As for GGAAUUCCUAAUUACGAAUTT against Ufd1l, the z-score is inactive: -0.445.

With “GGUCCUGAGUGUCAAGUUUTT against E430036I04Rik”, the z-score is inactive: 1.17.

Take GGCUGAAGUAAGGUUUCACTT against Ict1: the z-score was inactive: 0.234.

Consider GCUAAUGACACCACUUUUGTT against Aldh9a1, for which the z-score was inactive: -0.322.

As to GGAAACAACAACUGUCACATT against Defb40, the z-score is inactive: -0.993.

Regarding GGCAGAGCCUGGACAAAUATT against Slc6a4, the z-score is inactive: -1.41.

On to GGGAGUUGACUAGAAGUAATT against Bag1, for which the z-score was inactive: -1.81.

Consider GGCAUGUCUUCACAGGUGATT against Snrk, for which the z-score was inactive: -0.253.

Regarding GGAUAAAGAAGGUAUUCUUTT against Mccc1, the z-score is inactive: 0.803.

With “CCUAUCAUGGCAGAAUACUTT against 1300017J02Rik”, the z-score is inactive: 0.116.

Turning to “GGACCAGAUAAUAAAGGAATT against 1110032D12Rik”, the z-score was inactive: -0.275.

In the case of GGUGGUGGCUGUGUAUAACTT against Cdh15, the z-score was inactive: 0.0345.

For “GGGCUCAUGAACUAAAAUUTT against 5830404H04Rik”, the z-score was inactive: -0.664.

With GCAAUUGAGUCCAUAUAGCTT against Jtb, the z-score is inactive: 0.78.

In the case of GGCCUUAAAAUACCUUUGATT against Srpx, the z-score was inactive: -1.66.

In the case of GGAAGGUUUAUUCUUGGAUTT against Shcbp1, the z-score was inactive: 0.0859.

On to “GCUACUGGGAAUCUUUCAATT against 5730596B20Rik”, for which the z-score was inactive: -0.659.

Regarding GCUUAUGCCAGUCUGUCAUTT against Hs1bp1, the z-score was inactive: 0.287.

For “GGUUAAAGACAUGUACUAGTT against 9930022D16Rik”, the z-score is inactive: -0.0934.

With “GCGAAAUUCUGAAAAAGCCTT against 4833417A11Rik”, the z-score was inactive: 0.68.

As for “GCGAAUCUCCUCCUAGUGATT against E130310N06”, the z-score was inactive: -0.203.

As to CGUACUCCAACAACACUUUTT against Pdzk8, the z-score is inactive: 0.238.

Consider CCUACUUUAUUAUGUGUCATT against Mmp10, for which the z-score was inactive: 0.162.

Consider GGAAACCACUAUCCACCUUTT against Ubd, for which the z-score is inactive: 0.123.

As to GGGUUUCAUACCCACUGCUTT against Cntnap1, the z-score is inactive: -1.2.

On to GGUGUUUCGCUUGGAGGUGTT against Star, for which the z-score is inactive: -0.998.

Consider GGAGGAGCUGGAGAAAACATT against Psd4, for which the z-score is inactive: -2.7.

Take CCAGAUAUGAAGCUGCUCCTT against Rab28: the z-score is inactive: -0.202.

With “GCCACUACGCUCUACUGCATT against C230096C10Rik”, the z-score was inactive: 0.367.

On to GGUGAUUGUCUGGGAUUCCTT against Gnb5, for which the z-score was inactive: 0.666.

For the sequence GCAGGGUACUGGCUAAAUATT against Tnfrsf5, the z-score is inactive: -0.562.

Regarding GGAACAUCCAAAGCUCCACTT against LOC209387, the z-score is inactive: -0.295.

Turning to GCCUUUAGCAAAGUGGUUCTT against Rragd, the z-score is inactive: -0.0217.

For the sequence GGAACUUGCCAGAGAUACATT against Gak, the z-score was inactive: 1.05.

For the sequence UUCCAUUUUUUGGAGACCATT against AI746432, the z-score is inactive: -0.59.

For GCAUUGGAUACCCUCAGUATT against Krtap16-1, the z-score was inactive: -1.86.

Regarding GGACCAAGAACCAGCAAUGTT against Defb6, the z-score is inactive: 0.932.

As to GCCGUCAGAUGACAACUAGTT against Lta, the z-score is inactive: -0.668.

Turning to “GGAGAAGGUCAUUCUGAUGTT against 4932439K10Rik”, the z-score was inactive: 0.852.

As to GGCCUACCACCUUCAGAAGTT against Rpl37, the z-score was inactive: -2.25.

Regarding CGAGGGUGAAAGCUCUUUUTT against Zfp248, the z-score was inactive: -1.45.

Turning to GGUAUACCACUAUUCUCACTT against Olfr649, the z-score is inactive: -0.344.

For the sequence GGUUAGAAUAUGCAGAACATT against Arntl, the z-score is inactive: -2.52.

GGAAUCCUUUAUGGUUUUCTT against Pald: the z-score was inactive: -0.306.

GGAUAUCAGGGUUGUUAAGTT against Txnl4b: the z-score is inactive: 0.66.

On to GCUACCUUUCUGAACAUACTT against Lcp2, for which the z-score was inactive: -0.261.

Consider “GGACAAAAAUGGCAAUACUTT against 4930430A15Rik”, for which the z-score is inactive: -0.54.

As to CCGCGUUCACAUUCUCUAATT against Hfe, the z-score is inactive: -0.523.

As for “GCCAACCUAGCAACUCAAGTT against 4933417L02Rik”, the z-score was inactive: -0.11.

For the sequence GGGACCAUGAAUAAUGGCCTT against Snai1, the z-score is inactive: 1.22.

Consider GCUUCAAGUUCGUACGCCUTT against Eif2b1, for which the z-score is inactive: 3.42.
